{"source": "patent EP1615032A1", "about": "(Kido, Hiroshi, dated 2006)", "key": {"[1]": {"target": "human plasminogen (human) (UniProt P00747)", "test": "dot blot: 50 ng ligand on nitrocellulose, 100 ng/ml VDAC in solution, detected with anti-VDAC antibody and ECL"}, "[2]": {"target": "human miniplasmin (human) (UniProt P00747)", "test": "dot blot: 50 ng ligand on nitrocellulose, 100 ng/ml VDAC in solution, detected with anti-VDAC antibody and ECL"}}, "note": "No constants are given. Whether binding was seen depends on the method and setting. Some binding calls cover weakened binding; strength is not graded here.", "data": [{"substance": "purified mouse VDAC protein (from UniProt Q3U6K8 2-283) (receptor)", "values": [{"measurement": "binding", "setting": "[1]", "result": "binds"}, {"measurement": "binding", "setting": "[2]", "result": "binds"}]}]}
